# Data as given in PubChem BioAssay AID504774 (Drosophila RNAi Screening Center, 2011)
# Assay: 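Fly genes whose loss alters survival after alkylation damage to DNA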 (primary screen)
# Cells: Drosophila Kc167 cells
# Reagents: long dsRNA against Drosophila genes, about 0.25 µg dsRNA per well
# Time to read-out: about 6 days: 3 days knock-down, then 3 days with or without MMS
# Treatment: methyl methanesulphonate 0.004% (w/v) for 3 days after knock-down
# Read-out: 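ATP-dependent luminescence as a measure of live cells in MMS-exposed wells, quantile normalised within each plate, with replicate values also given as a mean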
# Scale: mean viability with MMS and viability with MMS: higher = more surviving cells after MMS
# In all, the deposit lists about 23,000 reagents; below is a random part of those with a known target gene and a result. 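Values are quantile-normalised luminescence on an arbitrary scale; higher means more cells surviving MMS.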 Not all columns of the deposit are shown.
target,DRSC id,mean viability with MMS,"viability with MMS, replicate 1"
CG8206,DRSC20093,3.52e6,3.83e6
CG8492,DRSC10984,3.58e6,4.26e6
CG8492,DRSC21804,3.47e6,4.04e6
Debcl (Death executioner Bcl-2),DRSC04965,3.56e6,4.02e6
CG9304,DRSC04538,3.57e6,4.09e6
SoxN (SoxNeuro),DRSC03440,3.43e6,4.01e6
SoxN (SoxNeuro),DRSC21779,3.22e6,3.80e6
Asciz (ASCIZ zinc finger protein),DRSC08421,3.42e6,3.81e6
Jon74E (Jonah 74E),DRSC10617,3.63e6,4.09e6
Sou (Souji),DRSC04356,3.35e6,3.79e6
CG30222,DRSC04125,3.59e6,3.95e6
CG30222,DRSC04262,3.68e6,4.11e6
CG3347,DRSC00597,3.76e6,4.28e6
CG5068,DRSC10476,3.67e6,4.34e6
yip3 (yippee interacting protein 3),DRSC04724,3.34e6,3.83e6
CG10681,DRSC09777,3.57e6,4.08e6
CG10681,DRSC21484,3.74e6,4.16e6
CG13045,DRSC09926,3.44e6,3.96e6
kraken,DRSC00824,3.55e6,4.03e6
Hinfp (Histone H4 transcription factor),DRSC18484,3.51e6,3.99e6
Rnf11 (Ring finger protein 11),DRSC21574,3.59e6,4.08e6
puc (puckered),DRSC17034,3.35e6,3.80e6
CG18367,DRSC06545,3.72e6,3.79e6
rst (roughest),DRSC17243,3.54e6,4.00e6
rst (roughest),DRSC18828,3.48e6,4.04e6
side-VI (sidestep VI),DRSC12828,3.41e6,3.90e6
side-VI (sidestep VI),DRSC12830,3.42e6,3.95e6
side-VI (sidestep VI),DRSC14920,3.53e6,4.01e6
side-VI (sidestep VI),DRSC15624,3.35e6,3.75e6
side-VI (sidestep VI),DRSC23088,3.64e6,3.97e6

2 consecutive records already listed, for reference:
target,DRSC id,mean viability with MMS,"viability with MMS, replicate 1"
side-VI (sidestep VI),DRSC12830,3.42e6,3.95e6
side-VI (sidestep VI),DRSC14920,3.53e6,4.01e6
